Patent publication US11773129B2, “Methods of preventing or treating atherosclerosis with inhibitors of specific isoenzymes of human neuraminidase” (THE GOVERNORS OF THE UNIVERSITY OF ALBERTA, priority 2017, dated 2023)
pIC50: −log10 of the molar value. Some results were stated once for a whole list of compounds, not compound by compound. Some ranges recur; such a range may be that of the whole group of compounds.

System: atherosclerotic lesions in ApoE KO mice
Assay: Atherosclerotic lesion size in aortic root of ApoE KO mice (Red Oil O)
Settings: ApoE KO female mice, ip, 4 weeks treatment, sacrificed at 16 weeks

Row | Structure (SMILES) | atherosclerotic lesion size, % of those in untreated ApoE mice
1 | CC(=O)N[C@@H]1C(NC(=N)N)C=C(C(=O)O)OC1C(O)C(O)Cn1cc(-c2ccc(-c3ccccc3)cc2)nn1 (some centres unmarked) [8b] | 25-50%
2 | CC(=O)N[C@@H]1C(O)C=C(C(=O)O)OC1C(O)C(O)Cn1cc(-c2ccc(-c3ccccc3)cc2)nn1 (some centres unmarked) [7i] | 25-50%
3 | CCCCC(=O)NCC(O)C(O)C1OC(C(=O)O)=CC(O)[C@H]1NC(C)=O (some centres unmarked) [compound 50, C9-BA-DANA] | 25-50%
4 | CCCCC(=O)N[C@@H]1C(O)C=C(C(=O)O)OC1C(O)C(O)CO (some centres unmarked) [compound 31] | 25-50%

Molecular target: T1, NEU1, NEU2, NEU3, NEU4
T1 construct: rows headed: IC50 against a neu1/neu3; other: neu1 or neu3; fused on or other part: His6 tag (NEU1); N-terminal MBP (NEU3)
Assay: Isoenzyme specificity/selectivity from 4MU-NANA IC50 across the four human neuraminidases
Format: biochemical
Settings: neu1 or neu3; read-out: IC50 against a neu1/neu3

Row | Structure (SMILES) | pIC50
5 | CCCCCC(=O)N[C@H]1[C@H]([C@H](O)[C@H](O)CNC(=O)CC)OC(C(=O)O)=C[C@@H]1O [compound 69, 5-Hexanamido-9-propionamido-2,6-anhydro-3,5-dideoxy-d-glycero-d-galacto-non-2-enonic acid] | > 6.00
6 | CCCCCC(=O)N[C@H]1[C@H]([C@H](O)[C@H](O)CNC(C)=O)OC(C(=O)O)=C[C@@H]1O [compound 68, 5-Hexanamido-9-acetamido-2,6-anhydro-3,5-dideoxy-D-glycero-D-galacto-non-2-enonic acid] | > 6.00
7 | CCCCC(C)C(=O)N[C@H]1[C@H]([C@H](O)[C@H](O)CNC(C)=O)OC(C(=O)O)=C[C@@H]1O (mixture of isomers) [compound 74, 5-(2-Methyl)hexanamido(S/R)-9-acetanamido-2,6-anhydro-3,5-dideoxy-d-glycero-d-galacto-non-2-enonic acid] | > 6.00
8 | CCCCC(=O)N[C@H]1[C@H]([C@H](O)[C@H](O)CNC(C)=O)OC(C(=O)O)=C[C@@H]1O [compound 67, 5-Pentanamido-9-acetamido-2,6-anhydro-3,5-dideoxy-D-glycero-D-galacto-non-2-enonic acid] | > 6.00
9 | CCCCC(C)C(=O)N[C@H]1[C@H]([C@H](O)[C@H](O)CO)OC(C(=O)O)=C[C@@H]1O (mixture of isomers) [compound 72, 5-(2-Methyl)hexanamido(S/R)-2,6-anhydro-3,5-dideoxy-d-glycero-d-galacto-non-2-enonic acid] | > 6.00
10 | CCCCC(CC)C(=O)N[C@H]1[C@H]([C@H](O)[C@H](O)CO)OC(C(=O)O)=C[C@@H]1O (mixture of isomers) [compound 75, 5-(2-Ethyl)hexanamido(SIR)-2,6-anhydro-3,5-dideoxy-d-glycero-d-galacto-non-2-enonic acid] | > 6.00
11 | CC(=O)N[C@@H]1C(NC(=N)N)C=C(C(=O)O)OC1C(O)C(O)Cn1cc(-c2ccc(C(=O)O)cc2)nn1 (some centres unmarked) [8a] | > 6.00
12 | CCCCCC(=O)N[C@H]1[C@H]([C@H](O)[C@H](O)CO)OC(C(=O)O)=C[C@@H]1O [compound 32, 5-Hexanamido-2,6-anhydro-3,5-dideoxy-D-glycero-D-galacto-non-2-enonic acid] | > 6.00
13 | CCCCC(=O)N[C@@H]1C(O)C=C(C(=O)O)OC1C(O)C(O)CO (some centres unmarked) [compound 31] | > 6.00

Molecular target: NEU1, NEU2, NEU3, NEU4
Assay: as above
Format: biochemical
Settings: isoenzyme not specified; read-out: IC50 against a neuraminidase

Row | Structure (SMILES) | pIC50
14 | CCCCCC(=O)N[C@H]1[C@H]([C@H](O)[C@H](O)CNC(C)=O)OC(C(=O)O)=C[C@@H]1O [compound 68, 5-Hexanamido-9-acetamido-2,6-anhydro-3,5-dideoxy-D-glycero-D-galacto-non-2-enonic acid] | > 9.00
